Like-named read-outs stand apart in the source and are kept apart here.
Tested on: MV4-11 subcutaneous tumor
Details: t-test vs control group
Description: During drug administration, measuring the weight and gross tumor volume of the mice per 2 days and keeping a record. The calculation formula is as V=π/6×A^2×B, where, where, V=gross tumor volume (mm^3), A=tumor width (mm) and B=tumor length (mm). Observing and keeping a record for the survival condition of the tested animals. After drug discontinuance, killing the mice through cervical dislocation and peeling off their tumors as per the operation specification of animal experiment. Evaluating the inhibition capability of the compounds to tumor activities by calculating the tumor inhibitory rate with the formula as: tumor inhibitory rate=(1−tumor weight of treatment group/tumor weight of control group)×100%. Analyzing and comparing the difference between each treatment group and control group with the method of t-test. The grading of significance level of difference is: ***, P<0.001; **, P<0.01; *, P<0.05; no statistical significance (ns), P>0.05.

| Structure (SMILES) | Statistic difference (10 mg/kg i.v.) | Statistic difference (50 mg/kg i.p.) |
| --- | --- | --- |
| COc1ccc(-c2nc(N3CCOCC3)c3nc(CN(C)c4ncc(C(=O)NO)cn4)n(C)c3n2)cn1 [CLJ-1, 2-(((2-(6-methoxypyridine-3-yl)-9-methyl-6-morpholine-9H-purine-8-yl))methyl(methyl)amino)-N-hydroxyl pyrimidine-5-formamide] | *** (***, P<0.001) |  |
| CN(Cc1nc2c(N3CCOCC3)nc(-c3cnc(N)nc3)nc2n1C)c1ncc(C(=O)NO)cn1 [CLJ-11, 2-(((2-(2-aminopyrimidine-5-yl)-9-methyl-6-morpholine-9H-purine-8-yl))methyl(methyl)amino)-N-hydroxyl pyrimidine-5-formamide] | ** (**, P<0.01) |  |
| COc1ccc(-c2nc(N3CCOCC3)c3nc(CN(C)c4ncc(C(=O)NO)cn4)n(C)c3n2)cc1 [CLJ-29, 2-(((2-(4-methoxyphenyl)-9-methyl-6-morpholine-9H-purine-8-yl))methyl(methyl)amino)-N-hydroxyl pyrimidine-5-formamide] | *** (***, P<0.001) |  |
| CN(Cc1nc2c(N3CCOCC3)nc(-c3ccc(N)cc3)nc2n1C)c1ncc(C(=O)NO)cn1 [CLJ-44] | *** (***, P<0.001) |  |
| O=C(CCCCCCC(=O)Nc1ccccc1)NO [SAHA, vorinostat, reference compound] |  | ns (no statistical significance (ns), P>0.05) |

Reference: patent US10227347B2, “Purinyl-N-hydroxyl pyrimidine formamide derivative, preparation methods and uses thereof” (Guizhou Bailing Group Pharmaceutical CO., LTD., priority 2015, dated 2019)
